Measurements from article doi:10.1101/2021.12.21.473566.
Positions count from the first letter of the chain named. Results are given in words; binding and its absence hold for the method and conditions named. In cells and extracts the contact can be indirect. Where a sequence is shown, tags or fusion partners need not be part of it.

Columns and labels:
Assay in all cases: co-IP
PTP1B-DA = biological target: T1, PTP1B-DA (UniProt P18031)
T1 sequence: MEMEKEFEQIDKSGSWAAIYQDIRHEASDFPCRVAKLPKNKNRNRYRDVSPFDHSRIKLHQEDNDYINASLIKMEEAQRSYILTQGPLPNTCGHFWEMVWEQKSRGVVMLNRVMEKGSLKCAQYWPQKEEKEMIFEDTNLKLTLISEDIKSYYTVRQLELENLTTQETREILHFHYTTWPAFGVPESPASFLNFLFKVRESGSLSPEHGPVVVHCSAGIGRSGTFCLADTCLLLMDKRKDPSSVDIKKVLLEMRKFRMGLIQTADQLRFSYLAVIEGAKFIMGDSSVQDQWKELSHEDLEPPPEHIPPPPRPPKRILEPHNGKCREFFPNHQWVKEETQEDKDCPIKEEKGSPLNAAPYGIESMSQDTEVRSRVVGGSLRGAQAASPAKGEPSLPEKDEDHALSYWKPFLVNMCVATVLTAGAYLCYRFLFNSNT

[1] = biological target: T2, PTP1B-DA-PafA-Myc (HEK293T) (UniProt P18031)
T2 sequence: T1 sequence

[2] = biological target: T3, PTP1B-WT-PafA-Myc (HEK293T) (UniProt P18031)
T3 sequence: T1 sequence with A181D

Measured: binding

B1: THEMIS-WT-FLAG (protein, UniProt Q8N1K5 1-641)
chain: MALSLEEFVHSLDLRTLPRVLEIQAGIYLEGSIYEMFGNECCFSTGEVIKITGLKVKKIIAEICEQIEGCESLQPFELPMNFPGLFKIVADKTPYLTMEEITRTIHIGPSRLGHPCFYHQKDIKLENLIIKQGEQIMLNSVEEIDGEIMVSCAVARNHQTHSFNLPLSQEGEFYECEDERIYTLKEIVEWKIPKNRTRTVNLTDFSNKWDSTNPFPKDFYGTLILKPVYEIQGVMKFRKDIIRILPSLDVEVKDITDSYDANWFLQLLSTEDLFEMTSKEFPIVTEVIEAPEGNHLPQSILQPGKTIVIHKKYQASRILASEIRSNFPKRHFLIPTSYKGKFKRRPREFPTAYDLEIAKSEKEPLHVVATKAFHSPHDKLSSVSVGDQFLVHQSETTEVLCEGIKKVVNVLACEKILKKSYEAALLPLYMEGGFVEVIHDKKQYPISELCKQFRLPFNVKVSVRDLSIEEDVLAATPGLQLEEDITDSYLLISDFANPTECWEIPVGRLNMTVQLVSNFSRDAEPFLVRTLVEEITEEQYYMMRRYESSASHPPPRPPKHPSVEETKLTLLTLAEERTVDLPKSPKRHHVDITKKLHPNQAGLDSKVLIGSQNDLVDEEKERSNRGATAIAETFKNEKHQK
no binding: all assays above
